From the supplement of paper PMC11264405

Key:
Assay in all cases: minimum inhibitory concentration
[1] = compound: CCC[C@@H]1C[C@@H](C(=O)N[C@@H]([C@H]2O[C@H](SC)[C@H](O)[C@@H](O)[C@H]2O)[C@H](C)Cl)N(C)C1 [clindamycin]
[2] = compound: CO[C@H]1/C=C/O[C@@]2(C)Oc3c(C)c(O)c4c(O)c(c(/C=N/N5CCN(C)CC5)c(O)c4c3C2=O)NC(=O)/C(C)=C\C=C\[C@H](C)[C@H](O)[C@@H](C)[C@@H](O)[C@@H](C)[C@H](OC(C)=O)[C@@H]1C [rifampicin]
[3] = compound: C[C@@H](O)[C@H]1C(=O)N2C(C(=O)O)=C(SCCNC=N)C[C@H]12 [imipenem]
[4] = compound: CN(C)c1cc(NC(=O)CNC(C)(C)C)c(O)c2c1C[C@H]1C[C@H]3[C@H](N(C)C)C(O)=C(C(N)=O)C(=O)[C@@]3(O)C(O)=C1C2=O [tigecycline]
[5] = compound: CN[C@H](CC(C)C)C(=O)N[C@H]1C(=O)N[C@@H](CC(N)=O)C(=O)N[C@H]2C(=O)N[C@H]3C(=O)N[C@H](C(=O)N[C@H](C(=O)O)c4cc(O)cc(O)c4-c4cc3ccc4O)[C@H](O)c3ccc(c(Cl)c3)Oc3cc2cc(c3O[C@@H]2O[C@H](CO)[C@@H](O)[C@H](O)[C@H]2O[C@H]2C[C@](C)(N)[C@H](O)[C@H](C)O2)Oc2ccc(cc2Cl)[C@H]1O [vancomycin]
[6] = compound: Cc1ncc([N+](=O)[O-])n1CCO [metronidazole]
[7] = compound: CC(=O)NC[C@H]1CN(c2ccc(N3CCOCC3)c(F)c2)C(=O)O1 [linezolid]
[8] = compound: C[C@@H](O)[C@H]1C(=O)N2C(C(=O)O)=C(S[C@@H]3CN[C@H](C(=O)N(C)C)C3)[C@H](C)[C@H]12 [meropenem]
[9] = compound: CCc1c(Cl)c(O)c(Cl)c(O)c1C(=O)O[C@H]1[C@H](O)[C@H](OC)[C@H](OC/C2=C\C=C\C[C@H](O)/C(C)=C/[C@H](CC)[C@@H](O[C@@H]3OC(C)(C)[C@@H](OC(=O)C(C)C)[C@H](O)[C@@H]3O)/C(C)=C/C(C)=C/C[C@@H]([C@@H](C)O)OC2=O)O[C@@H]1C [fidaxomicin]

Test System | minimum inhibitory concentration [1] | minimum inhibitory concentration [2] | minimum inhibitory concentration [3] | minimum inhibitory concentration [4] | minimum inhibitory concentration [5] | minimum inhibitory concentration [6] | minimum inhibitory concentration [7] | minimum inhibitory concentration [8] | minimum inhibitory concentration [9]
Clostridioides difficile PCR ribotype 013 isolate #62 (European region: North, country: UK, isolate source: Human, ribotype: 013) | 0.5 µg/mL | < 0.001 µg/mL | 4 µg/mL | < 0.03 µg/mL | 1 µg/mL | < 0.125 µg/mL | 1 µg/mL | 4 µg/mL | 0.004 µg/mL
Clostridioides difficile PCR ribotype 013 isolate #63 (European region: North, country: UK, isolate source: Human, ribotype: 013) | 16 µg/mL | < 0.001 µg/mL | 2 µg/mL | < 0.03 µg/mL | 1 µg/mL | < 0.125 µg/mL | 2 µg/mL | 2 µg/mL | 0.004 µg/mL
Clostridioides difficile PCR ribotype 013 isolate #297 (European region: West, country: Netherlands, isolate source: Animal, ribotype: 013) | 16 µg/mL | < 0.001 µg/mL | 0.5 µg/mL | < 0.03 µg/mL | 0.5 µg/mL | < 0.125 µg/mL | 2 µg/mL | 4 µg/mL | 0.008 µg/mL
Clostridioides difficile PCR ribotype 013 isolate #298 (European region: West, country: France, isolate source: Animal, ribotype: 013) | 16 µg/mL | < 0.001 µg/mL | 1 µg/mL | < 0.03 µg/mL | 1 µg/mL | < 0.125 µg/mL | 2 µg/mL | 4 µg/mL | 0.004 µg/mL
Clostridioides difficile PCR ribotype 014 isolate #64 (European region: East, country: Poland, isolate source: Human, ribotype: 014) | 16 µg/mL | < 0.001 µg/mL | 2 µg/mL | < 0.03 µg/mL | 0.5 µg/mL | 0.25 µg/mL | 2 µg/mL | 4 µg/mL | 0.03 µg/mL
Clostridioides difficile PCR ribotype 014 isolate #65 (European region: West, country: France, isolate source: Human, ribotype: 014) | 8 µg/mL | < 0.001 µg/mL | 2 µg/mL | < 0.03 µg/mL | 0.5 µg/mL | < 0.125 µg/mL | 2 µg/mL | 2 µg/mL | 0.015 µg/mL
Clostridioides difficile PCR ribotype 014 isolate #66 (European region: North, country: UK, isolate source: Human, ribotype: 014) | 8 µg/mL | < 0.001 µg/mL | 2 µg/mL | < 0.03 µg/mL | 0.5 µg/mL | 0.25 µg/mL | 2 µg/mL | 4 µg/mL | 0.125 µg/mL
Clostridioides difficile PCR ribotype 014 isolate #67 (European region: North, country: UK, isolate source: Human, ribotype: 014) | 8 µg/mL | < 0.001 µg/mL | 4 µg/mL | 0.06 µg/mL | 0.5 µg/mL | 0.25 µg/mL | 2 µg/mL | 2 µg/mL | 0.06 µg/mL
Clostridioides difficile PCR ribotype 014 isolate #68 (European region: North, country: UK, isolate source: Human, ribotype: 014) | 8 µg/mL | < 0.001 µg/mL | 2 µg/mL | 0.06 µg/mL | 0.5 µg/mL | < 0.125 µg/mL | 2 µg/mL | 4 µg/mL | 0.03 µg/mL
Clostridioides difficile PCR ribotype 014 isolate #70 (European region: North, country: UK, isolate source: Human, ribotype: 014) | 16 µg/mL | < 0.001 µg/mL | 2 µg/mL | 0.06 µg/mL | 0.5 µg/mL | < 0.125 µg/mL | 2 µg/mL | 2 µg/mL | 0.03 µg/mL
Clostridioides difficile PCR ribotype 014 isolate #71 (European region: West, country: Netherlands, isolate source: Human, ribotype: 014) | 8 µg/mL | < 0.001 µg/mL | 1 µg/mL | < 0.03 µg/mL | 0.5 µg/mL | 0.25 µg/mL | 2 µg/mL | 2 µg/mL | 0.03 µg/mL
Clostridioides difficile PCR ribotype 014 isolate #73 (European region: East, country: Poland, isolate source: Human, ribotype: 014) | 8 µg/mL | < 0.001 µg/mL | 2 µg/mL | < 0.03 µg/mL | 0.5 µg/mL | 0.25 µg/mL | 2 µg/mL | 4 µg/mL | 0.004 µg/mL
Clostridioides difficile PCR ribotype 014 isolate #76 (European region: West, country: France, isolate source: Human, ribotype: 014) | 16 µg/mL | < 0.001 µg/mL | 2 µg/mL | < 0.03 µg/mL | 1 µg/mL | 0.25 µg/mL | 2 µg/mL | 2 µg/mL | 0.06 µg/mL
Clostridioides difficile PCR ribotype 014 isolate #79 (European region: West, country: Belgium, isolate source: Human, ribotype: 014) | 4 µg/mL | < 0.001 µg/mL | 1 µg/mL | 0.125 µg/mL | 0.5 µg/mL | < 0.125 µg/mL | 2 µg/mL | 2 µg/mL | 0.008 µg/mL
Clostridioides difficile PCR ribotype 014 isolate #80 (European region: West, country: Belgium, isolate source: Human, ribotype: 014) | 2 µg/mL | < 0.001 µg/mL | 1 µg/mL | 0.125 µg/mL | 1 µg/mL | < 0.125 µg/mL | 2 µg/mL | 2 µg/mL | 0.03 µg/mL
Clostridioides difficile PCR ribotype 014 isolate #81 (European region: West, country: Belgium, isolate source: Human, ribotype: 014) | 8 µg/mL | < 0.001 µg/mL | 1 µg/mL | 0.06 µg/mL | 0.5 µg/mL | < 0.125 µg/mL | 2 µg/mL | 2 µg/mL | 0.03 µg/mL
Clostridioides difficile PCR ribotype 014 isolate #299 (European region: West, country: Austria, isolate source: Animal, ribotype: 014) | 8 µg/mL | < 0.001 µg/mL | 2 µg/mL | 0.06 µg/mL | 1 µg/mL | < 0.125 µg/mL | 2 µg/mL | 4 µg/mL | 0.03 µg/mL
Clostridioides difficile PCR ribotype 014 isolate #300 (European region: East, country: Romania, isolate source: Animal, ribotype: 014) | 8 µg/mL | < 0.001 µg/mL | 2 µg/mL | < 0.03 µg/mL | 1 µg/mL | < 0.125 µg/mL | 2 µg/mL | 2 µg/mL | 0.06 µg/mL
Clostridioides difficile PCR ribotype 014 isolate #301 (European region: West, country: Netherlands, isolate source: Animal, ribotype: 014) | 16 µg/mL | < 0.001 µg/mL | < 0.125 µg/mL | < 0.03 µg/mL | 0.5 µg/mL | < 0.125 µg/mL | 2 µg/mL | 4 µg/mL | 0.06 µg/mL
Clostridioides difficile PCR ribotype 014 isolate #302 (European region: West, country: France, isolate source: Animal, ribotype: 014) | 16 µg/mL | < 0.001 µg/mL | 2 µg/mL | < 0.03 µg/mL | 1 µg/mL | 0.25 µg/mL | 2 µg/mL | 4 µg/mL | 0.06 µg/mL
Clostridioides difficile PCR ribotype 014 isolate #303 (European region: West, country: France, isolate source: Animal, ribotype: 014) | 16 µg/mL | < 0.001 µg/mL | 1 µg/mL | < 0.03 µg/mL | 0.5 µg/mL | 0.25 µg/mL | 2 µg/mL | 4 µg/mL | 0.06 µg/mL
Clostridioides difficile PCR ribotype 015 isolate #82 (European region: North, country: UK, isolate source: Human, ribotype: 015) | 8 µg/mL | < 0.001 µg/mL | 2 µg/mL | < 0.03 µg/mL | 1 µg/mL | 0.25 µg/mL | 2 µg/mL | 2 µg/mL | 0.008 µg/mL
Clostridioides difficile PCR ribotype 015 isolate #83 (European region: North, country: UK, isolate source: Human, ribotype: 015) | 16 µg/mL | > 32 µg/mL | 2 µg/mL | < 0.03 µg/mL | < 0.125 µg/mL | < 0.125 µg/mL | 2 µg/mL | 8 µg/mL | 0.06 µg/mL
Clostridioides difficile PCR ribotype 015 isolate #84 (European region: North, country: UK, isolate source: Human, ribotype: 015) | < 0.125 µg/mL | < 0.001 µg/mL | 4 µg/mL | < 0.03 µg/mL | 0.25 µg/mL | < 0.125 µg/mL | 2 µg/mL | 4 µg/mL | 0.06 µg/mL
Clostridioides difficile PCR ribotype 015 isolate #85 (European region: West, country: France, isolate source: Human, ribotype: 015) | 16 µg/mL | < 0.001 µg/mL | 2 µg/mL | < 0.03 µg/mL | 0.5 µg/mL | < 0.125 µg/mL | 2 µg/mL | 2 µg/mL | 0.06 µg/mL
Clostridioides difficile PCR ribotype 015 isolate #86 (European region: North, country: UK, isolate source: Human, ribotype: 015) | 0.5 µg/mL | < 0.001 µg/mL | 2 µg/mL | 0.06 µg/mL | 1 µg/mL | < 0.125 µg/mL | 2 µg/mL | 2 µg/mL | 0.03 µg/mL

Single records, from the list above. Order of values: minimum inhibitory concentration [1]	minimum inhibitory concentration [2]	minimum inhibitory concentration [3]	minimum inhibitory concentration [4]	minimum inhibitory concentration [5]	minimum inhibitory concentration [6]	minimum inhibitory concentration [7]	minimum inhibitory concentration [8]	minimum inhibitory concentration [9]
Clostridioides difficile PCR ribotype 014 isolate #300 (European region: East, country: Romania, isolate source: Animal, ribotype: 014) in the list: 8 µg/mL	< 0.001 µg/mL	2 µg/mL	< 0.03 µg/mL	1 µg/mL	< 0.125 µg/mL	2 µg/mL	2 µg/mL	0.06 µg/mL
Clostridioides difficile PCR ribotype 014 isolate #299 (European region: West, country: Austria, isolate source: Animal, ribotype: 014) in the list: 8 µg/mL	< 0.001 µg/mL	2 µg/mL	0.06 µg/mL	1 µg/mL	< 0.125 µg/mL	2 µg/mL	4 µg/mL	0.03 µg/mL
